Reference: PubChem BioAssay (EPA / NIEHS)
“And” between values parts separate entries of the source, which are not always exact repeats. Equal values may be shown once. This list was built around the results that the source calls inconclusive (neither active nor inactive); the mix of calls is not that of the screen. A potency beside an inconclusive call is a rough fit, not a confirmed value. More than one record can exist for a structure, and the calls need not agree. The source made the active and inactive calls. The calls were made as follows: active = hit-call score of the fitted dose curve at least 0.9, where 1 is the maximum; inconclusive = response in the unintended direction; inactive = score below 0.9.

Amino acid sequences for entries named in this document (tags omitted). A change or cut given only in a name is not applied to a line headed by its entry.
UniProt P19793: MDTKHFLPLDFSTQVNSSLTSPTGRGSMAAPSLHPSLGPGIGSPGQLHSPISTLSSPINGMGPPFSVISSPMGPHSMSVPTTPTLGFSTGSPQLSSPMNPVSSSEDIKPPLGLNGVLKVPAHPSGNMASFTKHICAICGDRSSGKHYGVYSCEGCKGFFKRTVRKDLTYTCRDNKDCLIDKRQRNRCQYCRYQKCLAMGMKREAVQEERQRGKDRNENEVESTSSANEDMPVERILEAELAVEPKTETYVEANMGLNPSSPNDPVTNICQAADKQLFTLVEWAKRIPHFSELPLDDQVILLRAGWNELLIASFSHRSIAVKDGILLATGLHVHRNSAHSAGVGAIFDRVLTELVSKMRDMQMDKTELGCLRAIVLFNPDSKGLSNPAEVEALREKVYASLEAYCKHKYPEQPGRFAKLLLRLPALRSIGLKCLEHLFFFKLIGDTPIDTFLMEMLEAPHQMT

What follows are molecules tested against Retinoic acid receptor RXR-alpha (Homo sapiens) (UniProt P19793) (assay: OT_NURR1_NURR1RXRa_1440: Odyssey Thera (OT) 24-hour HEK293T Protein Complementation Assay for Nurr1/retinoid X receptor (RXR) (AID 2283386)).
Outline: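 HEK293T cells were dosed with compound and read 24 h later by fluorescence intensity in a protein-fragment complementation format, where Nurr1–RXRα interaction reconstitutes a split reporter. Activity was fitted as gain of signal relative to DMSO baseline.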

Structure (SMILES) | AC50 | outcome
CO[C@@H]1COCC[C@@H]1N[C@@H]1CC[C@@](C(=O)N2CCc3ncc(C(F)(F)F)cc3C2)(C(C)C)C1 | inconclusive: 50 µM and inconclusive: 49.8 µM | 
CC(C)CC(C)O (stereo not drawn) |  | inactive
c1ccc2cc3ccccc3cc2c1 | active: 72.7 µM and inconclusive: 50 µM | 
O=C1OC(c2ccc(O)cc2)(c2ccc(O)cc2)c2ccccc21 | inconclusive: 11.4 µM | inactive
CCOC(=O)CCC(=O)OCC | inconclusive: 12.2 µM | 
NC(=O)N1C(=O)C(C(=O)c2cc(Cl)cs2)c2cc(F)c(Cl)cc21 (stereo not drawn) | active: 32.9 µM | 
NNC(=O)c1ccncc1 | inconclusive: 22 µM | 
Cc1ccc(S(=O)(=O)NC(=O)NN2CCCCCC2)cc1 |  | inactive
Cc1ccc(C)c(S(=O)(=O)O)c1 | inconclusive: 322 nM and inconclusive: 18.1 µM | 
Fc1ccccc1[C@@H](F)COC1CCC(Nc2ncnc3[nH]ncc23)CC1 (stereo partly drawn) | inconclusive: 12.1 µM and inconclusive: 4.87 µM | 
CCCCC(CC)CO (stereo not drawn) |  | inactive
CC1=C(/C=C/C(C)=C/C=C/C(C)=C/CO)C(C)(C)CCC1 | active: 79.3 µM | 

Sorted by SMILES length (ascending): part of the list above
Structure (SMILES) | AC50 | outcome
CC(C)CC(C)O (stereo not drawn) |  | inactive
NNC(=O)c1ccncc1 | inconclusive: 22 µM | 
CO[C@@H]1COCC[C@@H]1N[C@@H]1CC[C@@](C(=O)N2CCc3ncc(C(F)(F)F)cc3C2)(C(C)C)C1 | inconclusive: 50 µM and inconclusive: 49.8 µM | 
